Data on 38 sequences can be found in publication PMC7862700.

The chains behind the UniProt entries cited, without tags or fusion partners. Where a name states a change or a piece, a line headed by the entry shows the natural chain unless it says otherwise.
UniProt P41161: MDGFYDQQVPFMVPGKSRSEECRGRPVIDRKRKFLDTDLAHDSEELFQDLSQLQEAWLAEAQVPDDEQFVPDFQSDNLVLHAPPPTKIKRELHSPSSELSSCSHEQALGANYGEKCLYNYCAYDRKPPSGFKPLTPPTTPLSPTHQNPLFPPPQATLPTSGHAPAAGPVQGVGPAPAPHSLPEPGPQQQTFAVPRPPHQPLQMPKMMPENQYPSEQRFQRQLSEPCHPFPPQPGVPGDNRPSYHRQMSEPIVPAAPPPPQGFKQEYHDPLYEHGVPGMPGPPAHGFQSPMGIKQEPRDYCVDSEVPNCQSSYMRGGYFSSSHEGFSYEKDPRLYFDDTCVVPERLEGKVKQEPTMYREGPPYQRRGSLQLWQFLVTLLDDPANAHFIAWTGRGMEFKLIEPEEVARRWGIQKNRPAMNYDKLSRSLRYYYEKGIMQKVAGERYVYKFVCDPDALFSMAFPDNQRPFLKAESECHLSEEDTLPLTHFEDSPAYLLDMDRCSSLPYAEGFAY
UniProt Q01892: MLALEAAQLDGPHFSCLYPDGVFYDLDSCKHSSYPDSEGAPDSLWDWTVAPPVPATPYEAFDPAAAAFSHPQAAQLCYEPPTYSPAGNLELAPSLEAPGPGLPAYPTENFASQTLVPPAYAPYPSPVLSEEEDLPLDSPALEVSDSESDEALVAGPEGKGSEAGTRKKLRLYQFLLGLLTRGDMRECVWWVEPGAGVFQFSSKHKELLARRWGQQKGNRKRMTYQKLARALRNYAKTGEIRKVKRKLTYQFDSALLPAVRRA

What all share (assay): DAPPL (digital affinity profiling via proximity ligation, sequencing)
Common to all, as to settings: 10 mM Tris-HCl pH 7.5, 50 mM NaCl, 1 mM DTT, 4% glycerol, room temperature, 30 min; GST-TFs on glutathione beads, 16-mer random dsDNA library, 0.1% …; high values mean tight binding; double strand, one strand shown; scale: fold enrichment (6-mer frequency, TF over GST control)

In one assay the target is ETV5 (UniProt P41161).
The next assay concerns the target T1, ETV3L (UniProt Q6ZN32).
T1 sequence: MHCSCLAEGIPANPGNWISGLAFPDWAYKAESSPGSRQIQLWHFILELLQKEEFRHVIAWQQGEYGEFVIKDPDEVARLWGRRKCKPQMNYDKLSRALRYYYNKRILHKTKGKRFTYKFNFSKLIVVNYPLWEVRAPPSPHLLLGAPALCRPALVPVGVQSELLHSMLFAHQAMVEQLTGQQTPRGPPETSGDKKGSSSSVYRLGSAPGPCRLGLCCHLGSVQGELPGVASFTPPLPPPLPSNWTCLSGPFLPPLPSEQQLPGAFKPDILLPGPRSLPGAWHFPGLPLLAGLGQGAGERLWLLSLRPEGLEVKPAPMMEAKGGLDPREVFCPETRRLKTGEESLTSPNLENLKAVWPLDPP

The target of another assay is SPIB (UniProt Q01892).
The target of another assay is T2, ETV2 (UniProt O00321).
T2 sequence: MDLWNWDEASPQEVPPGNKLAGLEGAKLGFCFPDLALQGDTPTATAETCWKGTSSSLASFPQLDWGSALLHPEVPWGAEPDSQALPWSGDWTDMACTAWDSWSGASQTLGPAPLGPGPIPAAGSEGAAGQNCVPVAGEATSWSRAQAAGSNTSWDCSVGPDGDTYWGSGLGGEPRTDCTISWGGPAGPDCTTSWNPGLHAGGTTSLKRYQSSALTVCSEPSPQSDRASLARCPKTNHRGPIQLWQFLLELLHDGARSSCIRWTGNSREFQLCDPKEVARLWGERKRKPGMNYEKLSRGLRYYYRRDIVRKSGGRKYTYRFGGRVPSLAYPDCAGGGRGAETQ

Another assay addresses T3, EHF (UniProt Q9NZC4).
T3 sequence: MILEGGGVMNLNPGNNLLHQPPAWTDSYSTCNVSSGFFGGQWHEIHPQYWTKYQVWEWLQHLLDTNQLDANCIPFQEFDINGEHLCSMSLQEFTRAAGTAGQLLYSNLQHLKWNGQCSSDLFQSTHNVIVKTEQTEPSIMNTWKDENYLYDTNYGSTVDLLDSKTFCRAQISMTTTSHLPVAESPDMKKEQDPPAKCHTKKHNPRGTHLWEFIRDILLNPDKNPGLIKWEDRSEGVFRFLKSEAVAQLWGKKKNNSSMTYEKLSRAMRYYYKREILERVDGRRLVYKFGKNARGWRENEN

The entries are a selection whose mix differs from that of the whole data set. For some assays here: At the low end of the ranking the order means little.

Regarding AAGTTA, the binding signal is 1.26 with ETV5 and 1.18 with ETV3L.
On to GTTCGA, for which the binding signal is 1.07 in the assay with ETV5 and 0.997 with ETV3L.
For AAATAA, in that order: 1.37 and 1.26.
As to TCCCTG, the binding signal in the assay with ETV5 turned out to be 1.35; with ETV3L, 1.28.
Taken in the same sequence, the figures for ACCACG were 0.988 and 0.975.
As for CACGTA, the binding signal with ETV5 came to 1.13; in the assay with ETV3L, 1.17.
Taken in the same sequence, the figures for GGTCTC were 2.46 and 2.36.
Taken in the same sequence, the figures for CTCAGC were 1.11 and 1.36.
Regarding TTAGAT, the results for the binding signal in the assay with SPIB, in the assay with ETV5 and with ETV2 were 1.05, 0.999 and 1.16, respectively.
For CATACG, the binding signal is 0.99 in the assay with SPIB, 1.08 in the assay with ETV5 and 0.958 in the assay with ETV2.
For the sequence TGATCC, the binding signal with ETV5 was 1.3; with ETV3L, 1.28.
As to ACATCG, the values for the binding signal with SPIB, in the assay with ETV5 and with ETV2 were 1.1, 1.04 and 0.987, respectively.
For the sequence GCTATG, the binding signal in the assay with ETV5 came to 1.13; with ETV3L, 1.16.
Taken in the same sequence, the figures for CCGTTC were 1.43 and 1.44.
For TTGGTT, in that order: 1.44 and 1.45.
Taken in the same sequence, the figures for CTCTTA were 1.41 and 1.5.
With TGTTGA, the binding signal in the assay with ETV5 turned out to be 1.07; with ETV3L it was 1.17.
In the case of TATACA, the binding signal with ETV5 stood at 1.35; with ETV3L, 1.3.
For ACACGC, in that order: 1.1 and 1.07.
Take TCTATA: the results for the binding signal with ETV5 and in the assay with ETV3L were 1.17 and 1.09, respectively.
For TACAGC, in that order: 0.973 and 1.08.
TAGTTG: the binding signal was 0.954 in the assay with ETV5 and 0.846 in the assay with ETV3L.
As for CCCCGC, the binding signal with SPIB came to 1.19; in the assay with ETV5 it was 1.18; with ETV2, 0.995.
As for AAGCTA, the results for the binding signal in the assay with ETV5 and in the assay with ETV3L were 1.17 and 1.2, respectively.
CATGGC: the figures for the binding signal with SPIB, with ETV5 and with ETV2 were 0.966, 0.996 and 1.04, respectively.
In the case of TTACGC, the binding signal is 1.19 with ETV5 and 1.05 in the assay with ETV3L.
Consider CGTTCT, for which the values for the binding signal with ETV5 and with ETV3L were 1.45 and 1.51, respectively.
As for GCACCT, the binding signal in the assay with ETV5 was 0.99; with ETV3L it was 0.973.
Taken in the same sequence, the figures for TTAAGA were 0.986 and 0.98.
As to TGGCCA, the binding signal with ETV5 worked out at 0.971; with ETV3L, 1.04.
Consider GGTACA, for which the binding signal in the assay with SPIB was 1.11; with ETV5, 1.05; with ETV2, 0.918.
In the case of TCTATC, the binding signal in the assay with ETV5 was determined as 1.19; with ETV3L it was 1.27.
Take GACGAC: the binding signal with SPIB came out at 0.909; with ETV5 it was 0.982; with ETV2 it was 0.962.
For the sequence CCGAAT, the binding signal with ETV5 was 1.14; with ETV3L, 1.24.
Take TCATAT: the binding signal with ETV5 was determined as 1.23; with ETV3L, 1.3.
Take TTTGCA: the binding signal in the assay with SPIB was determined as 1.29; with ETV5, 1.22; in the assay with ETV2, 1.24.
For CTGTCC, the values for the binding signal with ETV5 and with ETV3L were 1.41 and 1.13, respectively.
Take GATTTA: the binding signal with EHF turned out to be 1.11; with SPIB, 0.928; with ETV5, 0.97; in the assay with ETV3L, 0.975.
